## Library screening results

Amino acid sequences for entries named in this document (tags omitted).
UniProt E9BF75, entry or part of it: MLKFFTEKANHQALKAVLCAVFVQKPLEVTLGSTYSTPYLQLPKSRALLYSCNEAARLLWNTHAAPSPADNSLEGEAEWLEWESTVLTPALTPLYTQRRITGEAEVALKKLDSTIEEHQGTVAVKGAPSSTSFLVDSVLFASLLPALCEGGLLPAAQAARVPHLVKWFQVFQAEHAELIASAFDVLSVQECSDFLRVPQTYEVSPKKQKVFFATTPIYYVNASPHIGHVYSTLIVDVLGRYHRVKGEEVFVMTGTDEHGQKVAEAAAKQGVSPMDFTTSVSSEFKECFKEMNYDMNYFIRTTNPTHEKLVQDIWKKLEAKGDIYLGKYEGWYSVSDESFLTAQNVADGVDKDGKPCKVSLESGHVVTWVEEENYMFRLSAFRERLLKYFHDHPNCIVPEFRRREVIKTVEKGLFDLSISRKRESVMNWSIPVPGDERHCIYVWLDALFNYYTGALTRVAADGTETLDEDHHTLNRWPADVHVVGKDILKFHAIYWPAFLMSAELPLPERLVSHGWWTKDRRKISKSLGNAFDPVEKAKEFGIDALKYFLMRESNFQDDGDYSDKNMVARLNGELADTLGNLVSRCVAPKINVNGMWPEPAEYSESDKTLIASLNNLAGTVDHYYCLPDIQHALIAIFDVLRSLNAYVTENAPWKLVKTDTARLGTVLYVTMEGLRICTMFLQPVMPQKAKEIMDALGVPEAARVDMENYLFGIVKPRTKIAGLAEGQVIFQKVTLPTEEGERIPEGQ

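Methionyl-tRNA synthetase (putative), Leishmania donovani (UniProt E9BF75). Primary screen of methionyl-tRNA synthetase; the read-out is not stated. The test concentration is not given. The values are filed as inhibition. Size under these conditions: about 68,000 compounds, about 24 of them at 50% or above in at least one test.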

All values are in %. The controls that fix the scale are not given in the record; negative values are as filed. This is an unselected part of the compounds tested.

| compound | Inhibition |
|---|---|
| `COC(=O)CCCC(=O)N1CCC(CO)(CCc2ccccc2)CC1` | 5.898% |
| `Cc1nc(C2CCCN(C(=O)c3scnc3C)C2)no1` (configuration not stated) | 12.39% |
| `c1ccc(-c2nc(CCNC3CCOC4(CCOCC4)C3)no2)cc1` (configuration not stated) | 8.964% |
| `c1cc(CN2CCSC3(CCCCC3)C2)no1` | 16.17% |
| `CCc1nc(C2CCCN(C(=O)CC3CCOCC3)C2)no1` (configuration not stated) | 24.31% |
| `Cc1nccn1Cc1nnc(C2CCCN(c3ncccc3F)C2)n1C` (configuration not stated) | 10.09% |
| `O=C(Cc1cccc(O)c1)N1CCC2(CC1)c1ccccc1CC2O` (configuration not stated) | 10.03% |
| `Cc1cc(C)c(C(=O)N(C)CCN(C)C(=O)OC(C)(C)C)[nH]1` | 6.425% |
| `Cc1ccc(-c2nnc(CN3CCCC(Cn4cncn4)C3)o2)cc1` (configuration not stated) | 16.21% |
| `Cc1ccc(N(CCC#N)C(=O)CN2CCCC2c2cccs2)cc1` (configuration not stated) | 22.26% |
| `CCn1cncc1CN1CCN(CC2(c3ccc(C)cc3)CC2)CC1` | 2.532% |
| `COc1ccc(-c2cc3nn(CC(=O)NC(C)C)c(=O)n3c(C)n2)cc1` | 10.57% |
| `COc1ccccc1CNC(=O)C(C)n1cc2c(n1)c(C)nn2C` (configuration not stated) | -42.46% |
| `COc1ccc2c(c1)C(NCCc1ccccn1)CCCO2` (configuration not stated) | 11.68% |
| `Cn1cc(-c2cc(C(F)(F)F)n(CCCN)n2)cn1` | 7.297% |
| `CC(NC(=O)CCc1nc(-c2nnc[nH]2)no1)c1ccc(F)cc1F` (configuration not stated) | 8.075% |
| `COc1ccc(CNC(=O)NCC(O)(c2cccs2)C2CC2)cc1` (configuration not stated) | 2.878% |
| `CC1CCC(NS(=O)(=O)CC(=O)Nc2ccccc2N2CCCC2)CC1` (configuration not stated) | 15.86% |
| `Cn1cc(CN2C[C@H](Oc3ncccc3F)[C@H]3OCCC[C@H]32)cn1` | 19.31% |
| `Cc1nn(C)c(C)c1-c1ccc(=O)n(C(C)C(=O)NC2CCCCC2)n1` (configuration not stated) | 5.814% |
| `CCc1cc(CN(Cc2cccnc2)C2CN3CCC2CC3)on1` (configuration not stated) | 15% |
| `CC(CC(=O)c1ccccc1)NC(=O)c1ccon1` (configuration not stated) | 10.92% |
| `Cc1nc2c(c(NC3CCN(Cc4cccnc4)CC3)n1)CCNCC2` | 8.869% |
| `COCCOCCC(=O)Nc1c(-c2ccc(F)cc2)ncn1C` | 15.04% |
| `Cn1ccnc1CN1CCC(c2ccnc(-c3cccc(O)c3)c2)C1` (configuration not stated) | 13.71% |
| `Cc1ccc(S(=O)(=O)N2CCC(S(=O)(=O)c3nncn3C)CC2)cc1C` | 10.06% |
| `Cc1nocc1C(=O)N1CCc2c(CN(C)C)nn(C)c2C1` | 14.42% |
| `CCSCCC(=O)NCc1cc2n(n1)CCN(C(=O)N(C)C)C2` | -2.688% |
| `CC(CN1CCCC1=O)NC(=O)c1cc(-c2cccc(Cl)c2)no1` (configuration not stated) | 15.85% |
| `O=C(c1cccc2c1OCCO2)N1CCCC1c1noc(C2CC2)n1` (configuration not stated) | 15.66% |
| `Cc1nc2oc(C(=O)N3CCOCC3)c(N)c2c2c1CCCC2` | 11.65% |
| `Cn1nc(CN2CCC(c3ccncc3)CC2)c2c(Cl)cccc21` | 18.53% |
| `COC(=O)c1cc(OC)c(OC)cc1N(C)S(C)(=O)=O` | -6.469% |
| `CC(C)c1nnc2sc(CC3CCS(=O)(=O)CC3)nn12` | 11.28% |
| `Cc1nnc(NC(=O)CSCc2cc(=O)n3ccccc3n2)s1` | 10.82% |
| `c1ncn(CC2CCCN2Cc2csc(C3CCCCC3)n2)n1` (configuration not stated) | 29.58% |
| `O=C(C1CCC1)N1CCCC(c2ccnc(Nc3cnccn3)n2)C1` (configuration not stated) | 16.15% |
| `CCN(CC)C(=O)Cn1cc(C(=O)NCCc2scnc2C)nn1` | 10.65% |
| `Cc1cccc(CN2C(=O)CCC23CCN(Cc2nccn2C)CC3)n1` | 11.23% |
| `Cc1nn(C)c2nc(NC(C)c3n[nH]c(=O)[nH]3)sc12` (configuration not stated) | 14.36% |
| `O=C(O)CNc1cc(-c2cc(C3CC3)ncn2)c2cc[nH]c2n1` | 1.875% |
| `COc1ccccc1CNC(=O)CS(=O)(=O)Cc1ccccc1` | 22.58% |
| `CC(O)C1CCN(c2cc(Cl)ccc2C#N)CC1` (configuration not stated) | 6.529% |
| `CN(CCCNS(=O)(=O)N1CCC2(CC1)OCCO2)c1ccccc1` | 6.747% |
| `Cc1cc(NC(=O)N2CCN(C)CC2C)n(CCC#N)n1` (configuration not stated) | 10.87% |
| `O=C(c1cscn1)N1CCC2(CCCN(CCOc3ccccc3)C2)C1` (configuration not stated) | 16.35% |
| `Cc1nc(NS(=O)(=O)c2cccc(F)c2C)no1` | 13.96% |
| `OCc1csc(N2C[C@@H](CN3CCCCCC3)[C@@H](CO)C2)n1` | 23.49% |
| `Cc1ccc(NC2CCN(C(=O)COC3CCCC3)CC2)nn1` | 24.5% |
| `CCCN(CC)C(=O)c1cc(Cn2c(C)nc3ccccc32)[nH]n1` | 19.06% |
| `COCCN1CCN(C(C(=O)O)c2ccc(SC)cc2)CC1` (configuration not stated) | 14.38% |
| `O=C(CCc1nnc2ccccn2c1=O)NCc1ccc2c(c1)OCO2` | 8.065% |
| `COc1cccc(CNC(=O)c2cc(C)nc(N3CCCC3)n2)c1` | 13.26% |
| `COc1ccc(-c2noc(C(=O)NCCN3CCCCC3)n2)cc1OC` | 5.394% |
| `CN(Cc1ccc2c(c1)OCCO2)Cc1nnnn1-c1ccccc1` | 17% |
| `CCn1ccc(-c2nnc(SCC(=O)NCC(C)C)n2CC)n1` | 14.74% |
| `COc1c(C(=O)N2CCNC(=O)C2)cnc2c1c(C)nn2C` | -0.8333% |
| `Cc1nc(CCC(N)=O)cc(C2CCCN2S(C)(=O)=O)n1` (configuration not stated) | 16.04% |
| `CCN1CCOCC2(CCCN(C(=O)c3conc3C)C2)C1` (configuration not stated) | 6.731% |
| `Cn1nc(C(=O)NCc2ccc(F)cc2)c2c1CCS(=O)(=O)C2` | 4.271% |
| `CCOc1cc(C(=O)N(C)C)ccc1NC(=O)C(C)c1ccsc1` (configuration not stated) | 5.686% |
| `Cc1nn(-c2ccccc2)c(C)c1CN1CCNCC1` | -7.286% |
| `c1cncc(COCc2n[nH]c3c2CN(Cc2ccco2)C3)c1` | 10.8% |
| `CCn1c(C)nnc1CN(C)C1CCN(Cc2nnc(C3CC3)o2)C1` (configuration not stated) | 20% |
| `Cc1nc(C2CCCN(C(=O)COCCc3ccccc3)C2)no1` (configuration not stated) | 21.1% |
| `CC1CCCCN1S(=O)(=O)NCCN/C(O)=C1/N=CC=CC1=O` (configuration not stated) | 15.62% |
| `CCCNC(=O)N1CCN(Cc2cc(C)no2)CC1` | 12.6% |
| `CN(C)C(=O)CN1CCC(c2cccc(Cc3ccc(F)cc3)n2)CC1` | 5.208% |
| `Cc1cc(C2CCCN(C(=O)Cc3csc(C(C)C)n3)C2)n[nH]1` (configuration not stated) | 11.11% |
| `N#CC1(NC(=O)c2c(F)ccc(OC(F)F)c2F)CCOCC1` | -2.514% |
| `COc1cccc(-c2nc(C)c(C(=O)N[C@H](CO)CCSC)s2)c1` | 14.24% |
| `O=C1CC(c2ccccc2)C2(CCN(C(=O)c3ccncc3F)CC2)N1` (configuration not stated) | 4.762% |
| `CCNC(=O)CN1CCC(c2cc(OC)cc(OC)c2)C1` (configuration not stated) | 8.101% |
| `COc1ccc(N2CCN(C(=O)C3CN(C)C(=O)N3)CC2(C)C)cc1` (configuration not stated) | 8.303% |
| `CN(C)S(=O)(=O)N1CCN(c2ccnc(N3CCCCC3)n2)CC1` | 8.065% |
| `Cc1ccn2ncc(C(=O)N3CCCC(c4noc(C)n4)C3)c2n1` (configuration not stated) | 8.741% |
| `O=c1[nH]ncn1-c1cccc(C(F)(F)F)c1` | 3.235% |
| `COCCN(CCOC)C(=O)c1ccn(-c2ccc3ccccn23)n1` | 6.767% |
| `O=C(c1cnco1)N1CCC(Cc2cccc3ncccc23)CC1` | 5.814% |
| `CN1CCN(Cc2ccc(Cl)cc2)CC1C(=O)O` (configuration not stated) | 21.5% |
| `Cc1ccccc1-c1cc(C(=O)NCCN2CCCS2(=O)=O)[nH]n1` | 9.202% |
| `CC(=O)Nc1ccc(Oc2ccc3c(c2)OCO3)nc1` | 16.49% |
| `CCn1nc(C)cc1C(=O)N1C[C@H]2CCC[C@@]2(COc2ccccn2)C1` | 6.536% |
| `CCc1nc(C)c(C(C)N(C)CCOC)s1` (configuration not stated) | 17.66% |
| `CC(C)C[C@@H](CO)n1cc(-c2cncnc2)nn1` | 8.184% |
| `Cc1ccc(C(=O)N2CCOc3nc(C)ccc32)c(F)c1` | 9.722% |
| `COc1ccc(C(=O)C2CCCN(Cc3cnn(C)c3C)C2)c(OC)c1` (configuration not stated) | 11.93% |
| `CC[C@H]1CN(C(=O)c2ccc(-n3cnnc3)nc2)CC[C@@]1(C)O` | 7.606% |
| `CCC(NC(=O)c1nn(C)cc1C(=O)O)c1ccc(C)cc1C` (configuration not stated) | -4.595% |
| `CNS(=O)(=O)Cc1ccc(CNC(=O)c2ccccn2)cc1` | 13.39% |
| `O=C(c1ccc(-c2cc[nH]n2)cc1)N1CC[C@H](CO)[C@H](O)C1` | 7.292% |
| `CCc1cnc(CN2CCC(O)(c3cc(OC)cc(OC)c3)CC2)o1` | 8.865% |
| `O=C1CCC(=O)c2oc3ccc(Cl)cc3c2N1` | 14.45% |
| `O=C(NCC1CC1)C1CN(C(=O)c2cccnc2)CC12CCOCC2` (configuration not stated) | 20.59% |
| `Cc1ccc2c(n1)N(CCN(C)C)CCN(C(=O)c1ccc[nH]1)C2` | 4.53% |

Some entries from above, unchanged:

compound,Inhibition
CCc1nc(C2CCCN(C(=O)CC3CCOCC3)C2)no1 (configuration not stated),24.31%
Cc1cc(C)c(C(=O)N(C)CCN(C)C(=O)OC(C)(C)C)[nH]1,6.425%
Cn1cc(-c2cc(C(F)(F)F)n(CCCN)n2)cn1,7.297%
CCn1nc(C)cc1C(=O)N1C[C@H]2CCC[C@@]2(COc2ccccn2)C1,6.536%
CCSCCC(=O)NCc1cc2n(n1)CCN(C(=O)N(C)C)C2,-2.688%
COc1ccccc1CNC(=O)CS(=O)(=O)Cc1ccccc1,22.58%
Cc1nn(C)c2nc(NC(C)c3n[nH]c(=O)[nH]3)sc12 (configuration not stated),14.36%
Cc1nocc1C(=O)N1CCc2c(CN(C)C)nn(C)c2C1,14.42%
COCCN1CCN(C(C(=O)O)c2ccc(SC)cc2)CC1 (configuration not stated),14.38%
CN(C)S(=O)(=O)N1CCN(c2ccnc(N3CCCCC3)n2)CC1,8.065%

Source: ChEMBL document CHEMBL3988442, “University of Dundee, Small-Polar-MMV Screening Library” (2021).